Test results taken from article PMC7819943, “Rice protein-binding microarrays: a tool to detect cis-acting elements near promoter regions in rice”.
Some of the results follow.

target: T1, OsSMF1 (Oryza sativa, UniProt Q6ZLB0 1-436); experiment: protein-binding microarray (RPBM); PBS, 2% BSA, 51.3 ng/ul salmon testes DNA, 50 uM zinc acetate, 200 nM TF, 25 C, 1 h; high values mean tight binding; conditions: protein: recombinant; tags: N-terminal polyhistidine and DsRed monomer fusion (pET32a); chain copies: 2; label: CyDye5-dUTP incorporated in the synthesized complementary strand; 3' TTTTT single-stranded linker to array surface; dsDNA, one strand shown
T1 sequence: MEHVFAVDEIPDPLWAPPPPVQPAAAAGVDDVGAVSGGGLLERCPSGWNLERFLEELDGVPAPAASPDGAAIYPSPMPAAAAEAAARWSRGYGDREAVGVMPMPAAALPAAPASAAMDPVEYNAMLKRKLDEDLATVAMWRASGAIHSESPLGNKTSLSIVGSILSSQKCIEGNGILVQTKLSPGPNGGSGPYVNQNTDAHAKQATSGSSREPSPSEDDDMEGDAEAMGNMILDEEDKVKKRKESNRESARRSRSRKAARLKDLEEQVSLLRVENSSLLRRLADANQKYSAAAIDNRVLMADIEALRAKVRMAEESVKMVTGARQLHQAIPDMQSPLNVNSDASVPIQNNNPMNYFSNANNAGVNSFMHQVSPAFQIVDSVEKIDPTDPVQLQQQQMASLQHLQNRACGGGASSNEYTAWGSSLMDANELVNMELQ
Summary of the method: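 In PBS with 2% BSA, salmon testes DNA and 50 µM zinc acetate, 200 nM protein was incubated on a custom Agilent array at 25 °C for 1 h and then washed off. The array had been made double-stranded by primer extension with Cy5-dUTP and blocked with 2% BSA. The proteins were transcription factors fused N-terminally to polyhistidine and DsRed, expressed in E. coli BL21-CodonPlus and purified on Ni–NTA. The binding signal is per-feature fluorescence intensity (arbitrary units) from an Axon 4000B scanner.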

Going from “AGAGGGGAGGAAGAAGGAAGGAGAGATGGGTCCGACATGTCGGAGTCACCTAGTGCAG” to “TGGCTTAGTGCTGGCGTGCTGCTACTTGTGTACTCCCTCCCGGAGTCACCTAGTGCAG”, the binding signal falls from 26900 fluorescence intensity (a.u.) to 3910 fluorescence intensity (a.u.).

Going from “AATCGCCGGCCCACAGAAAACAGCGAATCACGCGACGCGACGGAGTCACCTAGTGCAG” to “GAGCTTCACTCCTTGGCGTTGGTGGCCATCACTGAGCTTACGGAGTCACCTAGTGCAG”, the binding signal falls from 11900 fluorescence intensity (a.u.) to 3480 fluorescence intensity (a.u.).

First: TTGGAGTTGTAGAGGAGGAGGAGGTGGTGGTGGAGGTGGTCGGAGTCACCTAGTGCAG
Second: CATGTAAGCCACATTGTATGCTTTAGCCACATTGATGTTGCGGAGTCACCTAGTGCAG
The binding signal of the first is higher: 3600 fluorescence intensity (a.u.) for the first, 3500 fluorescence intensity (a.u.) for the second.

Going from “TGTCAAATTTTATAGCGTGCCACATGCAAGTCGATTATCTCGGAGTCACCTAGTGCAG” to “GTGGGAGACGTGGCCGCGTGCTGTCCCCGGGTTTACGAACCGGAGTCACCTAGTGCAG”, the binding signal rises from 3250 fluorescence intensity (a.u.) to 5140 fluorescence intensity (a.u.).

Going from “TTTCAGAGTTTGAAGTTGGAAATCAACCTTGTTGTTCTCTCGGAGTCACCTAGTGCAG” to “TTCGATGTGGCAGCTGACTCAGCGTGGGACCCACGCGTCACGGAGTCACCTAGTGCAG”, the binding signal falls from 63100 fluorescence intensity (a.u.) to 7730 fluorescence intensity (a.u.).

Going from “GCCGACGCCGTCGAGGTGACGTCGGCCGAGGAGGCGGCGGCGGAGTCACCTAGTGCAG” to “GAAGGAGAAGGAGAGGGGAGGGGCTGACGGGTGGGGTCCACGGAGTCACCTAGTGCAG”, the binding signal rises from 4170 fluorescence intensity (a.u.) to 4800 fluorescence intensity (a.u.).

First: CAGATGAACCATGTGTGCCCCATGTGAGCTGTGTGTGCATCGGAGTCACCTAGTGCAG
Second: CAACAACCTTGCTACTTGTACAGTCACCGTCAGGTGGGCCCGGAGTCACCTAGTGCAG
The binding signal of the first is lower: 3340 fluorescence intensity (a.u.) for the first, 9910 fluorescence intensity (a.u.) for the second.

Going from “ATTAAGCTGATTTGTTGCTAAAGAATCAGAAAGATTCATACGGAGTCACCTAGTGCAG” to “TGCGTGTACCTCCGCGGGACATCACGTGGGCCTCGTGGGCCGGAGTCACCTAGTGCAG”, the binding signal rises from 3190 fluorescence intensity (a.u.) to 3690 fluorescence intensity (a.u.).

Going from “CACTTCAATTTGTGCACCATGCATGACACTCAGATTATTCCGGAGTCACCTAGTGCAG” to “TCCTCCTCCTCCTGCTGGCCTGTCCGCCACGTCGCCGTCGCGGAGTCACCTAGTGCAG”, the binding signal rises from 3310 fluorescence intensity (a.u.) to 8500 fluorescence intensity (a.u.).

Compared with “ATGTTGCACTGCTGTTGATCCCGTGACCGGCCGTATGCCACGGAGTCACCTAGTGCAG”, “TTCACCCCTCGATTCGACCAATTCGAGTTGCTCGATTCCACGGAGTCACCTAGTGCAG” is higher in binding signal: 3430 fluorescence intensity (a.u.) for the first, 9210 fluorescence intensity (a.u.) for the second.

Compared with “ATGGAGGCTGCGGTCGGCTGGGCACGTGGTTGTCGTAGGGCGGAGTCACCTAGTGCAG”, “TGCGCCGCGCAGGCGTTTGGCCCTCATCGTGTCGATGCGTCGGAGTCACCTAGTGCAG” is lower in binding signal: 3600 fluorescence intensity (a.u.) for the first, 3340 fluorescence intensity (a.u.) for the second.

Compared with “AAATTAGCAAATACTTAATTAATTATGCGCTAATGAACCGCGGAGTCACCTAGTGCAG”, “CCCGGCGCCCGCAGCCGCAAGCGCATCGCCAACGCCGTGCCGGAGTCACCTAGTGCAG” is lower in binding signal: 31200 fluorescence intensity (a.u.) for the first, 3610 fluorescence intensity (a.u.) for the second.

Going from “CCGTAATGAAGGCCGCTCATTATCGAAGCTGATATATACACGGAGTCACCTAGTGCAG” to “ACCGCCTATAAAACCACCACGTCGGACGTCGCCACCTCCGCGGAGTCACCTAGTGCAG”, the binding signal falls from 24700 fluorescence intensity (a.u.) to 7070 fluorescence intensity (a.u.).

Going from “TAAATCCTACGTGGATCATCTACCGCCCATTATTGTACCTCGGAGTCACCTAGTGCAG” to “CAGTTCCTGTCGTTCGGCTGCTCCGACGTGACGTTCGCGCCGGAGTCACCTAGTGCAG”, the binding signal falls from 14200 fluorescence intensity (a.u.) to 4640 fluorescence intensity (a.u.).

Going from “GGAAATGTGGTAGATGACTTGTACCATTTTCACATATTGCCGGAGTCACCTAGTGCAG” to “ACAGGTGAATGGCAAGGCGCTAGAACCATTAGGTTGGCAACGGAGTCACCTAGTGCAG”, the binding signal rises from 3590 fluorescence intensity (a.u.) to 3610 fluorescence intensity (a.u.).

Going from “TACGAATTATGTAATTTGTTTTGTTATTAGTGTACATCTACGGAGTCACCTAGTGCAG” to “CCTGGTTTTAATCTACGTGGCGGCTGAGTTAATGTGGGACCGGAGTCACCTAGTGCAG”, the binding signal rises from 4070 fluorescence intensity (a.u.) to 13800 fluorescence intensity (a.u.).

First: ACGGTGTTGTGACGTGGAGTTGTGCGTGTACAACTTTACTCGGAGTCACCTAGTGCAG
Second: TTGAATTGCCATTACAAGCAGAAACTGGGTAGCCCAGCAGCGGAGTCACCTAGTGCAG
The binding signal of the first is lower: 14300 fluorescence intensity (a.u.) for the first, 14600 fluorescence intensity (a.u.) for the second.

First: AGTGTGTGTATGACAGGTGGGACCAGATACTAATAGTGTACGGAGTCACCTAGTGCAG
Second: AACTTCCTGGGGACCACCACCACCGGCGTCTGCGTCACCTCGGAGTCACCTAGTGCAG
The binding signal of the first is higher: 3400 fluorescence intensity (a.u.) for the first, 3160 fluorescence intensity (a.u.) for the second.

Compared with “TTGACAATGGTTGGGGTGGTGGTGGTGTTCGCGGTGATGACGGAGTCACCTAGTGCAG”, “CTGAACTTATTCAGATGATACGAACAGCGAGAAGCGTACGCGGAGTCACCTAGTGCAG” is lower in binding signal: 5330 fluorescence intensity (a.u.) for the first, 3400 fluorescence intensity (a.u.) for the second.

Compared with “GGTGGCGAGTGCGGGAGACGGTGGTTGACGCACGTGACAACGGAGTCACCTAGTGCAG”, “AGAGCGAACGGCCGTCTGCCACGTCATTTTCGCCGCCCTCCGGAGTCACCTAGTGCAG” is higher in binding signal: 3210 fluorescence intensity (a.u.) for the first, 21500 fluorescence intensity (a.u.) for the second.

Compared with “GTCTGCCCAGAAGGTGGAGGAGATCAGGTCCAGGATCCGTCGGAGTCACCTAGTGCAG”, “GCCTCTCCTTGCTTGCGTGCTCACTGTCGCTGACTGCTCTCGGAGTCACCTAGTGCAG” is higher in binding signal: 3390 fluorescence intensity (a.u.) for the first, 4650 fluorescence intensity (a.u.) for the second.
